No constants are given. Whether binding was seen depends on the method and setting. In cells and extracts the contact can be indirect. Here binding means that the protein was enriched with, or labelled near, the bait; the list need not be complete. For some assays here: Where a sequence is shown, tags or fusion partners need not be part of it.
Assays:
FLAG-PAXX (human) = FLAG-PAXX (human) (UniProt Q9BUH6); assay: affinity purification with mass spectrometry; anti-FLAG IP of FLAG-PAXX, -XLF, -XRCC4, -DNA-PKcs (stable) or FLAG-Pol λ (transient) from nucleoplasmic and benzonase-treated soluble chromatin fractions of HEK293F cells; FLAG peptide elution; LC-MS/MS
FLAG-Pol λ-WT (human) = FLAG-Pol λ-WT (human) (UniProt Q9UGP5); assay: as above

The chains behind the UniProt entries cited, without tags or fusion partners.
UniProt Q9BUH6: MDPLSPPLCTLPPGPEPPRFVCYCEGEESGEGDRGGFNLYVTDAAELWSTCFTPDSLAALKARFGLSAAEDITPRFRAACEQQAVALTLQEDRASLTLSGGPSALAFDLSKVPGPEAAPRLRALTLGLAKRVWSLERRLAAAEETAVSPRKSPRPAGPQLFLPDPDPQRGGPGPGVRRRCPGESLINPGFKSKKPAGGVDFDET

binding (FLAG-PAXX (human)) | binding (FLAG-Pol λ-WT (human)) | Substance
binds | – | DNA polymerase λ (endogenous) (from UniProt Q9UGP5 1-575) (enzyme)
– | binds | PAXX (endogenous) (from UniProt Q9BUH6 1-204)

— article PMC6155126
